Measurements as given in paper PMC4761961.
The exact form of at least one protein or probe is not confirmed. For some assays here: A negative result means that nothing was seen under these conditions. For some assays here: Where cells or extracts were used, other partners may take part. For some assays here: At least one verdict was read from the data and is not stated in words by the source.

Chains of the proteins cited; added tags and fusions are not shown. Residues count along the entry.
UniProt P03372, whole entry: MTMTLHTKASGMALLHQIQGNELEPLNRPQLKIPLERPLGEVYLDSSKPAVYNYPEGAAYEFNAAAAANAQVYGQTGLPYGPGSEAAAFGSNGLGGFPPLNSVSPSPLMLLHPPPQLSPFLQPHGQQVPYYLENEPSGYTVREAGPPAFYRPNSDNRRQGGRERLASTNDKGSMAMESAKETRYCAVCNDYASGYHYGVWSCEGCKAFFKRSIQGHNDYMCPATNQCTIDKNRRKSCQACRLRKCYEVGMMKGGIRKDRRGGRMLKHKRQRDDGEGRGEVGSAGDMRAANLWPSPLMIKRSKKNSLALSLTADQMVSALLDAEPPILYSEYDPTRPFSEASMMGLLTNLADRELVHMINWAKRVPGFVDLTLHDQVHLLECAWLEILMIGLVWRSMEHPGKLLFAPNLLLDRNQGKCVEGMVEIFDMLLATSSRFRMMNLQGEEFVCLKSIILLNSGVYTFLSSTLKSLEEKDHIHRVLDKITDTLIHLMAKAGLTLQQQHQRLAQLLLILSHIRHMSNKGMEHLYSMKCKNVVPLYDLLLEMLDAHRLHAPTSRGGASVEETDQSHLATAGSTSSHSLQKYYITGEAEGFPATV
UniProt P03372, 311-547: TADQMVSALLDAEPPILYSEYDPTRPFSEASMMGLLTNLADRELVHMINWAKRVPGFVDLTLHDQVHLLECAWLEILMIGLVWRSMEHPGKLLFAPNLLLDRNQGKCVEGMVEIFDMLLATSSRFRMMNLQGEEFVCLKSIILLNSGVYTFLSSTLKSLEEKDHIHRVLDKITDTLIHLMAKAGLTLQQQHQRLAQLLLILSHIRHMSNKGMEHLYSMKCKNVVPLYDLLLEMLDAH

What was measured:
[1] = molecular target: Estrogen receptor alpha (ERα) (human) (UniProt P03372); experiment: ITC; details: ITC: 10 mM Tris-HCl pH 8.0, 25 °C, 1 µM ERα in cell, 10 µM RNA in syringe
ERα LBD (human) = ERα LBD (human) (UniProt P03372); experiment: aptamer-assisted ELISA; details: ELISA: 100 nM biotinylated ERaptR4, 2 h
[2] = system: Progesterone receptor DBD; experiment: aptamer-assisted ELISA; details: insignificant binding; ELISA: 100 nM biotinylated ERaptR4, 2 h
[3] = system: Progesterone receptor LBD; experiment: aptamer-assisted ELISA; details: insignificant binding; ELISA: 100 nM biotinylated ERaptR4, 2 h
[4] = molecular target: ERα in MCF-7 nuclear extract (human (MCF-7)) (UniProt P03372); experiment: aptamer-assisted western blot; details: western blot: 1 µM ERaptR4; protein in an extract

Row | Sequence | binding result [1] | binding result (ERα LBD (human)) | binding result [2] | binding result [3] | binding result [4]
1 | AUCGUGUGCUGCUACGA [random 17-mer RNA] | no binding | – | – | – | –
2 | GGGGUCAAGGUGACCCC [biotinylated ERaptR4] | – | binds | no binding | no binding | binds
